# Where a name gives a salt, the structure may show the parent alone. Some of the results follow. Repeats in this data set agree poorly, so a single value says little.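 Human embryonic kidney cells were transiently transfected with a plasmid bearing a Renilla luciferase gene under the HSV-TK promoter. This first-round screen tests roughly ten thousand compounds for ones that increase reporter output.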
# Tested on: HEK 293FT
# Experiment: log relative Renilla luciferase luminescence (reporter expression vs reference, reference not stated) (log (base not stated)); higher = higher recombinant reporter expression
# Conditions: 10 µM; time after transfection 48 h
row,SMILES,log
1,CC(C(=O)O)c1ccc(N2Cc3ccccc3C2=O)cc1 (stereo not drawn) [Indoprofen],-0.106
2,Oc1ccc(OCc2ccccc2)cc1 [Monobenzone],-0.00375
3,C[C@H]1C[C@H]2[C@@H]3CCC4=CC(=O)C=C[C@]4(C)[C@@]3(F)[C@@H](O)C[C@]2(C)[C@@]1(O)C(=O)CO [Betamethasone],0.0143
4,C[C@H](O)C(=O)Nc1c(I)c(C(=O)NC(CO)CO)c(I)c(C(=O)NC(CO)CO)c1I [Iopamidol],-0.0109
5,CC(C)CC(=O)N[C@H](C(=O)N[C@H](C(=O)N[C@@H](CC(C)C)[C@@H](O)CC(=O)N[C@@H](C)C(=O)N[C@@H](CC(C)C)[C@@H](O)CC(=O)O)C(C)C)C(C)C [Pepstatin A],-0.41
6,O=C1CC2(CCCC2)CC(=O)N1CCCCN1CCN(c2ncccn2)CC1 [Buspirone hydrochloride],-1.09
7,CC[C@H]1OC(=O)[C@H](C)[C@@H](O[C@H]2C[C@@](C)(OC)[C@@H](O)[C@H](C)O2)[C@H](C)[C@@H](O[C@@H]2O[C@H](C)C[C@H](N(C)C)[C@H]2O)[C@](C)(O)C[C@@H](C)[C@@H]2N[C@@H](COCCOC)O[C@H]([C@H]2C)[C@]1(C)O [Dirithromycin],0.175
8,Cc1cc(CC(=O)O)n(C)c1C(=O)c1ccc(Cl)cc1 [Zomepirac sodium salt],0.157
9,CC1Cc2ccccc2N1NC(=O)c1ccc(Cl)c(S(N)(=O)=O)c1 (stereo not drawn) [Indapamide],0.13
10,Nc1ccc(S(=O)(=O)Nc2ccnn2-c2ccccc2)cc1 [Sulfaphenazole],0.0324
11,O=C(NCC(O)CO)c1c(I)c(C(=O)NCC(O)CO)c(I)c(N(CCO)C(=O)CO)c1I (stereo not drawn) [Ioversol],-0.0164
12,CO/N=C(\C(=O)N[C@@H]1C(=O)N2C(C(=O)O)=C(COC(N)=O)CS[C@H]12)c1ccco1 [Cefuroxime sodium salt],0.142
13,O=C1OCCN1/N=C/c1ccc([N+](=O)[O-])o1 [Furazolidone],-0.658
14,O=S(=O)(O)c1cc(O)ccc1O [Ethamsylate],0.0464
15,CCC(=O)O[C@]1(C(=O)CCl)[C@@H](C)C[C@H]2[C@@H]3CCC4=CC(=O)C=C[C@]4(C)[C@@]3(F)[C@@H](O)C[C@@]21C [Clobetasol propionate],-0.174
16,c1ccc([C@H]2CN3CCSC3=N2)cc1 [Levamisole hydrochloride],-0.0858
17,COc1ccc(C2CNC(=O)C2)cc1OC1CCCC1 (stereo not drawn) [Rolipram],0.0806
18,NC(=O)C(c1ccccc1)(c1ccccc1)[C@@H]1CCN(CCc2ccc3c(c2)CCO3)C1 [Darifenacin hydrobromide],-0.267
19,CCCNCC(O)COc1ccccc1C(=O)CCc1ccccc1 (stereo not drawn) [Propafenone hydrochloride],0.0542
20,COc1cc([C@@H]2c3cc4c(cc3[C@@H](O[C@@H]3O[C@@H]5CO[C@@H](C)O[C@H]5[C@H](O)[C@H]3O)[C@H]3COC(=O)[C@H]23)OCO4)cc(OC)c1O [Etoposide],-0.203
21,COc1ccccc1OCC(O)CN1CCN(CC(=O)Nc2c(C)cccc2C)CC1 (stereo not drawn) [Ranolazine],0.0626
22,"C[C@H]1C[C@@H]2[C@H]([C@@H](O)C[C@@]3(C)[C@H]2CC[C@]3(O)C(=O)CO)[C@@]2(C)C=CC(=O)C=C12 [Methylprednisolone, 6-alpha]",-0.0127
23,CC(C)NCC(O)c1ccc2ccccc2c1 (stereo not drawn) [Pronethalol hydrochloride],-0.0974
24,Nc1nc2n[nH]nc2c(=O)[nH]1 [Azaguanine-8],-0.0432
25,CN(C)c1nc(N(C)C)nc(N(C)C)n1 [Altretamine],0.0424

# Part of the list above, with bars between the fields.
row | SMILES | log
22 | C[C@H]1C[C@@H]2[C@H]([C@@H](O)C[C@@]3(C)[C@H]2CC[C@]3(O)C(=O)CO)[C@@]2(C)C=CC(=O)C=C12 [Methylprednisolone, 6-alpha] | -0.0127
23 | CC(C)NCC(O)c1ccc2ccccc2c1 (stereo not drawn) [Pronethalol hydrochloride] | -0.0974
24 | Nc1nc2n[nH]nc2c(=O)[nH]1 [Azaguanine-8] | -0.0432
25 | CN(C)c1nc(N(C)C)nc(N(C)C)n1 [Altretamine] | 0.0424

# (continued)

row,SMILES,log
1,Cc1c(N(C)CS(=O)(=O)O)c(=O)n(-c2ccccc2)n1C [Dipyrone],0.124
2,CC(NCCC(c1ccccc1)c1ccccc1)c1ccccc1 (stereo not drawn) [Fendiline hydrochloride],0.0949
3,"CC(C)NCC(O)c1ccc(O)c(O)c1 (single isomer, unassigned; (+)) [(+)-Isoproterenol (+)-bitartrate salt]",-0.048
4,CNCC(O)c1ccc(OC(=O)C(C)(C)C)c(OC(=O)C(C)(C)C)c1 (stereo not drawn) [Dipivefrin hydrochloride],-0.0739
5,CCN(CC)CCc1nc(-c2ccccc2)no1 [Oxalamine citrate salt],-0.17
6,CC(C)NC[C@@H](O)COc1cccc2ccccc12 [(R)-Propranolol hydrochloride],0.0697
7,O=c1oc2ccccc2c(O)c1Cc1c(O)c2ccccc2oc1=O [Dicumarol],-0.656
8,CN1CCN(CCCN2c3ccccc3Sc3ccc(Cl)cc32)CC1 [Prochlorperazine dimaleate],-1.38
9,C[C@H](CCC(=O)O)[C@H]1CC[C@H]2[C@@H]3[C@H](O)C[C@@H]4C[C@H](O)CC[C@]4(C)[C@H]3CC[C@]12C [Chenodiol],0.105
10,CN1CCN(c2c(F)cc3c(=O)c(C(=O)O)cn(CCF)c3c2F)CC1 [Fleroxacin],-1.3
11,NNc1nncc2ccccc12 [Hydralazine hydrochloride],-0.000277
12,CC(=O)OCC(CCn1cnc2cnc(N)nc21)COC(C)=O [Famciclovir],-0.0312
13,COc1c2occc2c(OC)c2c(=O)cc(C)oc12 [Khellin],-0.205
14,CC[C@H](C)C(=O)O[C@H]1CCC=C2C=C[C@H](C)[C@H](CC[C@@H]3C[C@@H](O)CC(=O)O3)[C@H]21 [Mevastatin],-0.523
15,Nc1cc(C(Cl)=C(Cl)Cl)c(S(N)(=O)=O)cc1S(N)(=O)=O [Clorsulon],0.109
16,Clc1ccc(COC(Cn2ccnc2)c2ccc(Cl)cc2Cl)c(Cl)c1 (stereo not drawn) [Miconazole],0.116
17,Cc1cc(=O)n(-c2ccccc2)n1C [Antipyrine],-0.0242
18,NC12CC3CC(CC(C3)C1)C2 [Adamantamine fumarate],-0.287
19,Cc1ccc(-c2ncc(Cl)cc2-c2ccc(S(C)(=O)=O)cc2)cn1 [Etoricoxib],0.00952
20,CC1CCc2c(N3CCC(O)CC3)c(F)cc3c(=O)c(C(=O)O)cn1c23 (stereo not drawn) [Nadifloxacin],0.121
21,C[C@@H]1NC(=O)NC1=O [Methylhydantoin-5-(L)],-0.148
22,CN1CCN(C2=Nc3cc(Cl)ccc3Nc3ccccc32)CC1 [Clozapine],0.126
23,CN1CCc2cccc3c2[C@H]1Cc1ccc(O)c(O)c1-3 [R(-) Apomorphine hydrochloride hemihydrate],-0.132
24,CCC(Cc1c(I)cc(I)c(N)c1I)C(=O)O (stereo not drawn) [Iopanoic acid],0.0143
25,CCC(NC(C)C)C(O)c1ccc(O)c(O)c1 (stereo not drawn) [Isoetharine mesylate salt],0.0875

# Fetched by structure from above (2):
row,SMILES,log
24,CCC(Cc1c(I)cc(I)c(N)c1I)C(=O)O (stereo not drawn) [Iopanoic acid],0.0143
7,O=c1oc2ccccc2c(O)c1Cc1c(O)c2ccccc2oc1=O [Dicumarol],-0.656

# (next part)

row,SMILES,log
1,C[C@@H]1[C@H](O)[C@@H](C)/C=C/C=C/C=C/C=C/C=C/C=C/C=C/[C@H](O[C@@H]2O[C@H](C)[C@@H](O)[C@H](N)[C@@H]2O)C[C@@H]2O[C@](O)(C[C@@H](O)C[C@@H](O)[C@H](O)CC[C@@H](O)C[C@@H](O)CC(=O)O[C@H]1C)C[C@H](O)[C@H]2C(=O)O [Amphotericin B],-0.0173
2,CO[C@@]1(NC(=O)CSCC#N)C(=O)N2C(C(=O)O)=C(CSc3nnnn3C)CS[C@@H]21 [Cefmetazole sodium salt],0.114
3,CC(C)NC[C@H](O)COc1ccc(CC(N)=O)cc1 [(S)-(-)-Atenolol],0.112
4,CCOC(=O)C(C)(C)Oc1ccc(Cl)cc1 [Clofibrate],0.0638
5,CC(=O)N(O)CCCCCNC(=O)CCC(=O)N(O)CCCCCNC(=O)CCC(=O)N(O)CCCCCN [Deferoxamine mesylate],-0.482
6,CCN[C@H]1C[C@H](C)S(=O)(=O)c2sc(S(N)(=O)=O)cc21 [Dorzolamide hydrochloride],0.123
7,O=C1Cc2cc(CCN3CCN(c4nsc5ccccc45)CC3)c(Cl)cc2N1 [Ziprasidone  Hydrochloride],-0.151
8,CC(C)/N=c1\cc2n(-c3ccc(Cl)cc3)c3ccccc3nc-2cc1Nc1ccc(Cl)cc1 [Clofazimine],-0.327
9,O=c1cc(-c2ccc(O)c(O)c2)oc2cc(O)cc(O)c12 [Luteolin],-1.49
10,CC(C)(C(=O)c1cccnc1)c1cccnc1 [Metyrapone],0.135
11,Nc1c(Br)cc(Br)cc1CN[C@H]1CC[C@H](O)CC1 [Ambroxol hydrochloride],0.0849
12,Cn1ccnc1S [Methimazole],-0.0157
13,CC(C)(Sc1cc(C(C)(C)C)c(O)c(C(C)(C)C)c1)Sc1cc(C(C)(C)C)c(O)c(C(C)(C)C)c1 [Probucol],0.0496
14,CN1CCCC(CC2c3ccccc3Sc3ccccc32)C1 (stereo not drawn) [Metixene hydrochloride],-0.54
15,COc1ccccc1N1CCN(CC(O)COc2cccc3ccccc23)CC1 (stereo not drawn) [Naftopidil dihydrochloride],-0.232
16,CN1CCC(=C2c3ccccc3CC(=O)c3sccc32)CC1 [Ketotifen fumarate],-0.36
17,CCN1C(=O)NC(c2ccccc2)C1=O (stereo not drawn) [Ethotoin],0.119
18,CCCN(CCC)C(=O)C(CCC(=O)O)NC(=O)c1ccccc1 (stereo not drawn) [Proglumide],0.115
19,COc1ccc2c(c1)N(C[C@H](C)CN(C)C)c1ccccc1S2 [Methotrimeprazine maleat salt],-0.275
20,N#CC(c1ccc(Cl)cc1)c1c(Cl)cc(-n2ncc(=O)[nH]c2=O)cc1Cl (stereo not drawn) [Diclazuril],-0.0681
21,COc1cc(OC)c(C(=O)CCCN2CCCC2)c(OC)c1 [Buflomedil hydrochloride],-0.0505
22,Cc1cc(C(=O)NNCc2ccccc2)no1 [Isocarboxazid],0.0128
23,CO[C@H]1C[C@H](O[C@H]2[C@H](C)[C@@H](O[C@@H]3O[C@H](C)C[C@H](N(C)C)[C@H]3OC(C)=O)[C@@H](C)C[C@@]3(CO3)C(=O)[C@H](C)[C@@H](OC(C)=O)[C@@H](C)[C@@H](C)OC(=O)[C@@H]2C)O[C@@H](C)[C@@H]1OC(C)=O [Troleandomycin],0.0769
